Results on one sequence are retold here after publication PMC6083498, “F-CphI represents a new homing endonuclease family using the Endo VII catalytic motif”.

The data set concerns the target T1, F-CphI (cyanophage S-PM2) (UniProt Q7Y4H4).
T1 sequence (looked up, limits assumed): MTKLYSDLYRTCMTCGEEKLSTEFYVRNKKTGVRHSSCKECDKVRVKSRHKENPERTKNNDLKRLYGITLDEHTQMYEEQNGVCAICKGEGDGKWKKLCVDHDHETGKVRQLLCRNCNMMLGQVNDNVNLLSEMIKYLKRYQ
The experiment in a line: competition with a labelled probe. The note with it: 200 nM protein, 2 nM labeled N1, competitor 0-20 nM; EMSA: 10 mM Tris-HCl pH 8.0, 2% glycerol, 2 ug/ml poly-dIdC, 2 ug/ml BSA, 0.2 mM DTT, on ice 15 min, 2 nM labeled DNA; 8% native PAGE in 1X TBE; recombinant protein; label: unlabeled.

Construct, isoform or probe ends are uncertain for at least one entry. Negatives hold for the conditions tested. At least one verdict was read from the data and is not stated in words by the source. Protein sequences can lack the tags named with them.

For the sequence “TAGACGGATGAATATTGAGGACAGAAGTTGGATTTGGTAGT (double strand) [endoV41A duplex]”, the binding result is recorded as “no binding”.
